# Assay results taken from publication PMC11106239.
# Results are given in words; binding and its absence hold for the method and conditions named. In cells and extracts the contact can be indirect. Some entries that bind do so weakly or less than the wild type.
# T1: recombinant mouse Reg4 protein (mouse) (UniProt Q9D8G5)
# T1 sequence: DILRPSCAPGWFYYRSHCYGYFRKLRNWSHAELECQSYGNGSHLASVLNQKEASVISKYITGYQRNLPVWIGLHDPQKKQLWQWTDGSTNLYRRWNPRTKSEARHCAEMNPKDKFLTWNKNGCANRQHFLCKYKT
# B1: exostosin-like glycosyltransferase 3 (Extl3) (receptor, UniProt Q9WVL6 1-918)
# chain: MTGYTMLRNGGVGNGGQTCMLRWSNRIRLTWLSFTLFIILVFFPLIAHYYLTTLDEADEAGKRIFGPRAGSELCEVKHVLDLCRIRESVSEELLQLEAKRQELNSEIAKLNLKIEACKKSIENAKQDLLQLKNVISQTEHSYKELMAQNQPKLSLPIRLLPEKDDAGLPPPKVTRGCRLHNCFDYSRCPLTSGFPVYVYDSDQFAFGSYLDPLVKQAFQATVRANVYVTENAAIACLYVVLVGEMQEPTVLRPADLEKQLFSLPHWRTDGHNHVIINLSRKSDTQNLLYNVSTGRHVAQSTFYAAQYRAGFDLVVSPLVHAMSEPNFMEIPPQVPVKRKYLFTFQGEKIESLRSSLQEARSFEEEMEGDPPADYDDRIIATLKAVQDSKLDQVLVEFTCKNQPKPSLPTEWALCGEREDRLELLKLSTFALIITPGDPHLLISSGCATRLFEALEVGAVPVVLGEQVQLPYHDMLQWNEAALVVPKPRVTEVHFLLRSLSDSDLLAMRRQGRFLWETYFSTADSIFNTVLAMIRTRIQIPAAPIREEVAAEIPHRSGKAAGTDPNMADNGDLDLGPVETEPPYASPKYLRNFTLTVTDCYRGWNSAPGPFHLFPHTPFDPVLPSEAKFLGSGTGFRPIGGGAGGSGKEFQAALGGNVQREQFTVVMLTYEREEVLMNSLERLNGLPYLNKVVVVWNSPKLPSEDLLWPDIGVPIMVVRTEKNSLNNRFLPWNEIETEAILSIDDDAHLRHDEIMFGFRVWREARDRIVGFPGRYHAWDIPHQSWLYNSNYSCELSMVLTGAAFFHKYYAYLYSYVMPQAIRDMVDEYINCEDIAMNFLVSHITRKPPIKVTSRWTFRCPGCPQALSHDDSHFHERHKCINFFVKVYGYMPLLYTQFRVDSVLFKTRLPHDKTKCFKFI
# Target: T1, recombinant mouse Reg4 protein (mouse)
# Assay: pull-down; called co-immunoprecipitation by the paper: 30 mg protein lysate from mouse pancreas incubated with rReg4 protein (100 µg/ml) at 4 °C overnight; captured on Ni-NTA-agarose, eluted; Western blot with anti-EXTL3, anti-REG4 and anti-His antibodies; only the target purified
binder,measurement,value
B1,binding,binds
